Percent effect of library compounds

Data taken from ChEMBL document CHEMBL3988442, “University of Dundee, Small-Polar-MMV Screening Library” (2021).

Each number is a percent effect as filed. The record does not define 0% and 100%; most values in the screen are far below 50% and negative numbers occur (in some assays of this library far below -100). Compounds were drawn at random from those tested, without regard to their results. Two or more numbers in one place are separate tests of the same structure; such repeats can differ widely.

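Phenotypic screen: M. tuberculosis growth, cholesterol and DPPC medium, 4 days; the read-out is not stated. Tested at 50 µM. Higher reads as more growth inhibition (inferred: compounds with an IC50 in retests scored well above the rest). Of about 69,000 compounds tested this way, about 370 (0.54%) reached 50% or more in at least one test.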

| compound | percent effect |
|---|---|
| `CCNC(=O)c1c2c(N3CCN(C)CC3)ncnc2n2ccccc12` | -7.911 |
| `O=C(O)C(F)(F)F.O=C(O)C(F)(F)F.O=C(O)C(F)(F)F.c1cncc(COCC2CN(Cc3cccnc3)Cc3ccnn3C2)c1` (centres unmarked) | 13.59 & -0.05858 |
| `Cn1cc(CN2CCc3ccc(=O)n(CC4CC4)c3CC2)cn1` | -7.983 |
| `CC(C)c1noc(CCC(=O)Nc2cc(F)ccc2F)n1` | -30.37 |
| `Cc1cnn(CC2CN(CCS(C)(=O)=O)CCO2)c1` (centres unmarked) | -34.57 |
| `CCCc1cc(C(=O)N2C[C@H](O)[C@@H](N3CCCC3)C2)ccn1` | -33.68 |
| `[H][C@@]12COC[C@]1(COc1nccc(C)n1)CN(C(=O)c1ncccn1)C2` | 20.79 |
| `COCc1nc(CNC2CCCC(C)(C)C2)no1` (centres unmarked) | 18.48 |
| `O=C(OCCNc1ncccn1)c1ccc(Cl)s1` | 21.05 & 45.86 |
| `Cc1oc(C)c(C(=O)NCc2ccccn2)c1C` | -6.792 |
| `[H][C@]12CCN(C(N)=O)[C@@]1([H])CC[C@@H](COCC(=O)N1CCCC1)O2` | -9.477 |
| `O=C(NC1(C(=O)O)CCCC1)C1Cc2cc(F)ccc2O1` (centres unmarked) | 19.93 |
| `Cc1nc(C2CCCN2C(=O)c2ccccc2)ncc1C(N)=O` (centres unmarked) | -12.9 |
| `Cc1cccc(CN2CCN(c3ncnc4[nH]ccc34)CC2CCO)n1` (centres unmarked) | 16.1 |
| `CC(NC(=O)c1cc(-c2cccc(Cl)c2)no1)C(=O)N1CCCC1` (centres unmarked) | -0.9659 |
| `CC(C)C1=NOC2(CCN(Cc3c[nH]c4ccccc34)CC2)C1` | -19.84 |
| `CS(=O)(=O)N1CCCCC1c1ccc(Nc2cnccn2)nc1` (centres unmarked) | -21.93 & -18.26 |
| `CN(C)CCN(Cc1cccnc1)C(=O)c1ccn(-c2ccccc2)n1` | 1.469 |
| `CC(=O)N1CCCC2(CN(Cc3ccc(F)cc3)CCO2)C1.O=C(O)C(F)(F)F` (centres unmarked) | -12.46 |
| `CS(=O)(=O)N1CC[C@]2(C[C@H](Oc3ccccn3)CO2)C1.O=C(O)C(F)(F)F` | -4.914 |
| `CC(C(=O)NCc1ccc(-n2cncn2)nc1)n1ccnc1` (centres unmarked) | -6.286 |
| `CN(Cc1ccco1)C(=O)NC(Cn1ccnc1)C(C)(C)C` (centres unmarked) | -5.697 |
| `O=C(N1CCC(O)(C(F)(F)F)C1)C1(c2cccc(Cl)c2)CC1` (centres unmarked) | -6.089 |
| `CC(CN1CCOCC1)OC(=O)c1ccccc1I.Cl` (centres unmarked) | -2.207 |
| `CN1CC(=O)N(c2cnn(C)c2)CC12CCN(Cc1nccn1C)C2.O=C(O)C(F)(F)F.O=C(O)C(F)(F)F` (centres unmarked) | -10.12 |
| `COc1ccc(C(C)Nc2cnn(C)c(=O)c2Cl)cc1OC` (centres unmarked) | -3.291 |
| `COc1cccc(C(=O)NS(=O)(=O)c2cccc(C#N)c2)c1OC` | -23.97 |
| `c1ccc(CNc2nc(N3CCOCC3)nc3nccnc23)cc1` | 7.28 |
| `O=C(NCC1(c2ccc(F)cc2)CCCC1)N1CCOC(CO)C1` (centres unmarked) | -18.05 |
| `CS(=O)(=O)NCc1cncc2c1CCN(C(=O)c1ccccn1)C2` | 2.875 |
| `CCN1Cc2c(C(=O)NC)ncn2-c2ccccc2S1(=O)=O` | -4.56 |
| `O=C(c1cncs1)N1CCc2[nH]nc(Nc3ccccc3)c2C1` | 4.682 & 6.548 |
| `O=C(CN1CCc2cncnc2C1)NCCOc1ccccc1` | -14.88 |
| `O=C(NCc1cccc(N2CCCCC2=O)c1)[C@@H](O)c1ccccc1` | 26.26 |
| `O=C(NCc1ccco1)N1CCN(Cc2ccc3c(c2)CCO3)CC1` | 76.73 |
| `Cn1c(Cn2cccn2)nnc1C1CCCN(c2ccncc2F)C1` (centres unmarked) | -32.61 |
| `COc1ccc(CN(Cc2ccsc2)CC2CCCO2)cn1` (centres unmarked) | 22.57 |
| `O=C(CC1CCCC1)N1CCC(c2noc(-c3ccccn3)n2)CC1` | -15.34 & -1.57 |
| `[H][C@@]12CS(=O)(=O)C[C@]1([H])N(Cc1cc(Cl)cc(Cl)c1)CCN2CCO` | -4.391 |
| `COc1ccccc1C(=O)Nc1c(F)c(C(=O)N2CCCC2)nn1C` | -27.43 |
| `COc1nc(C)c(C(=O)NCc2cc(N3CCOCC3)ncn2)s1` | -20.59 |
| `O=C(CCCc1nc2ccccc2[nH]1)N1CCCC(n2cccn2)C1` (centres unmarked) | -0.4214 |
| `Cc1c[nH]c(C2CCCN(Cc3ccccc3C(=O)O)C2)n1.O=CO` (centres unmarked) | -23.76 |
| `O=C(CCC(=O)N1CCOCC1)NCc1cccnc1-n1cccn1` | -31.55 |
| `O=c1cc(C2CCNCC2)nc(CCc2ccccn2)[nH]1` | -9.392 |

3 of the entries, repeated:

* c1ccc(CNc2nc(N3CCOCC3)nc3nccnc23)cc1 : 7.28%
* CCCc1cc(C(=O)N2C[C@H](O)[C@@H](N3CCCC3)C2)ccn1 : -33.68%
* Cc1oc(C)c(C(=O)NCc2ccccn2)c1C : -6.792%